Measured values reported in patent US7288381 (PHADIA, dated 2007).

Columns and labels:
[1] = target: natural group 2 allergen from oat pollen (oat); assay: immunoblot of natural pollen extracts
[2] = target: natural group 2 allergen from sweet vernal grass pollen (sweet vernal grass); assay: immunoblot of natural pollen extracts
[3] = target: natural group 2 allergen from rye pollen (rye); assay: immunoblot of natural pollen extracts
[4] = target: natural group 2 allergen from Kentucky Bluegrass pollen (Kentucky Bluegrass); assay: immunoblot of natural pollen extracts
[5] = target: natural group 2 allergen from oat pollen (oat); assay: particle blotting of pollen grains
[6] = target: natural group 2 allergen from sweet vernal grass pollen (sweet vernal grass); assay: particle blotting of pollen grains
[7] = target: natural group 2 allergen from rye pollen (rye); assay: particle blotting of pollen grains
[8] = target: natural group 2 allergen from Kentucky Bluegrass pollen (Kentucky Bluegrass); assay: particle blotting of pollen grains

Measured: binding

B1: Phl p 2-specific human IgE Fab, clone 94 (Fab, V domains shown)
VH: LESGPGLVKPAQTLSLSCAVSGGSIRSGGYYWSWIRQHPGKGLEWIGYIYHSGNTYYNPSLKSRIAMSVDTSENKFSLRLNSVTAADTAVYYCARLDGYTLDIWGQGTLVTVSS
VL: ELTQSPSSLSASVGDRVTISCRASQRINTYLNWYQHKPGKAPKLLIYAASSLQSGVPSRFSGSGYGTDFTLTISSLQFEDFASYYCQESLSASYTFGQGTKVEIKR
notes: Human IgE Fab (heavy chain fragment Fd plus kappa light chain) expressed from pComb3H in E. coli and used as bacterial extract; they start at the Xho I / Sac I cloning sites; also called clone 94-derived IgE Fab; rPhl p 2-specific IgE Fab
binds: all assays above

B2: Phl p 2-specific human IgE Fab, clone 60 (Fab, V domains shown)
VH: LESGPGLVKPSQTLSLTCTVSGGSIRSGGYYWSWVRQPPGKGLEWIGNIYHSGNTYYNPSLKSRITMSVDTSKNHFSLRLTSVTAADTAVYYCARSDGYTLDNWGQGTLVTVSS
VL: ELTQSPSSLSASVGDRVTITCRARQSISTYLNWYQQKPGKAPKLLIWSASNLQSGVPSRFSGSGSGTEFTLTISNLQFEDFASYYCQQSYTTLYTFGSGTKLEIKR
notes: Human IgE Fab (Fd plus kappa light chain) expressed from pComb3H in E. coli and used as bacterial extract; also called rPhl p 2-specific IgE Fab; anti-Phl p 2 Fab
binds: all assays above

B3: Phl p 2-specific human IgE Fab, clone 100 (Fab, V domains shown)
VH: LESGPGLVKPSQTLSLTCTVSGGSIRSGGYYWSWIRQPPGKGLEWIGYIYHSGNTYYNPSLKSRVTMSVDTSKNHFSLRLSSVTAADTAVYYCARSDGYTLDNWGQGTLVTVSS
VL: ELTQSPSSVSASVGDRVTITCRASQGISSWLAWYQHQPGKAPKLLIYSASSLQSGVPSRFSGSGYGTDFSLTISSLQFEDSATYYCQQANSFPYTFGQGTKVEIKR
notes: as for B2
binds: all assays above

These are yes or no findings as the source states them, for the method shown. Binding can be weak; no strength is given.
